These are yes or no findings as the source states them, for the method shown. In cells and extracts the contact can be indirect. Some entries that bind do so weakly or less than the wild type.

By UniProt entry, the sequences of proteins in these tests, tags left out. Where a name states a change or a piece, a line headed by the entry shows the natural chain unless it says otherwise.
UniProt P09471: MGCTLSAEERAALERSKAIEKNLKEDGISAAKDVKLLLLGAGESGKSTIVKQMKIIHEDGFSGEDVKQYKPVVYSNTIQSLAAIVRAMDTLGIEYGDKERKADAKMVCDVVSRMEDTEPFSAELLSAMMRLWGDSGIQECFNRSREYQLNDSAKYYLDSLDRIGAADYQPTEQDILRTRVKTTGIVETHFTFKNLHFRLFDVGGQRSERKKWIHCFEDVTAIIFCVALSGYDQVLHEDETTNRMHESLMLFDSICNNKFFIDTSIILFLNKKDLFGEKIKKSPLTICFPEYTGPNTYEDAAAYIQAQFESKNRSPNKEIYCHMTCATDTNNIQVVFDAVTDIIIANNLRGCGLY

The values that follow come from article PMC10605901, “Clinical Cases and the Molecular Profiling of a Novel Childhood Encephalopathy-Causing GNAO1 Mutation P170R” (Cells, 2023).

Test [1] has as its target Gαo[Q205L]^Gly92-GFP (human) (UniProt P09471). Briefly: co-IP; N2a cells co-transfected with Gαo-GFP constructs and mRFP-Gβ1/mRFP-Gγ3 (1:1:1) or HA-RGS19 (1:1); cleared lysates (20 mM Tris-HCl pH 8.0, 1% Triton X-100, 10% glycerol in PBS) incubated with GST-tagged anti-GFP nanobody, then Glutathione Sepharose 4B beads overnight at 4 °C; Western blot for GFP, mRFP and/or HA; quantification normalized to the precipitated Gαo-GFP. Background: A western blot detects proteins with antibodies after separation by electrophoresis.

For test [2], the target named is Gαo^Gly92-GFP wild-type (Gαo internally tagged with GFP at Gly92) (human) (UniProt P09471). The test is described as above.

B1: 3xHA-RGS19 (natural protein, UniProt P49795 1-217, looked up)
chain: MPTPHEAEKQITGPEEADRPPSMSSHDTASPAAPSRNPCCLCWCCCCSCSWNQERRRAWQASRESKLQPLPSCEVCATPSPEEVQSWAQSFDKLMHSPAGRSVFRAFLRTEYSEENMLFWLACEELKAEANQHVVDEKARLIYEDYVSILSPKEVSLDSRVREGINKKMQEPSAHTFDDAQLQIYTLMHRDSYPRFLSSPTYRALLLQGPSQSSSEA
notes: RGS19 (regulator of G-protein signaling 19); also called 3×HA-RGS19; RGS19 (tagged with 3 × HA); source: N2a cells, transfected, in lysate
B1: the binding entry in test [1] and in test [2] was “binds” throughout.
